Experimental data reported in the supplement of paper PMC4604168 (melanoma cell lines).
This is one part of the list. Many values rest on one well or one pass, so single values are uncertain.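 Imaging used 1,536-well plates; nuclei positive for cleaved PARP by antibody were divided by total DNA-stained nuclei to yield the apoptosis fraction. Doses for screening kept most cells viable, and cell lines differ markedly in resting and induced cleaved-PARP levels.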

These compounds were tested on RPMI7951 (assay: cleaved PARP positive nuclei fraction relative to DMSO control; melanoma cells; higher = more apoptosis). Details: library dose: low library concentration; 72 h.

Structure (SMILES)	cleaved PARP positive nuclei fraction
CN(c1ncccc1CNc1nc(Nc2ccc3c(c2)CC(=O)N3)ncc1C(F)(F)F)S(C)(=O)=O + Cc1cc([N+](=O)[O-])ccc1NS(=O)(=O)c1cc(Cl)ccc1Cl [FH535] (first compound 0.08 µM, partner dose 1 µM)	89.8%
CC(=O)O[C@@]12CO[C@@H]1C[C@H](O)[C@@]1(C)C(=O)[C@H](O)C3=C(C)[C@@H](OC(=O)[C@H](O)[C@@H](NC(=O)OC(C)(C)C)c4ccccc4)C[C@@](O)([C@@H](OC(=O)c4ccccc4)[C@H]21)C3(C)C [Docetaxel] + N#Cc1c(O)c2c(-c3ccc(-c4ccccc4O)cc3)csc2[nH]c1=O [A769662] (first compound 0.0001 µM, partner dose 2 µM)	94.8%
CC(=O)O[C@@]12CO[C@@H]1C[C@H](O)[C@@]1(C)C(=O)[C@H](O)C3=C(C)[C@@H](OC(=O)[C@H](O)[C@@H](NC(=O)OC(C)(C)C)c4ccccc4)C[C@@](O)([C@@H](OC(=O)c4ccccc4)[C@H]21)C3(C)C [Docetaxel] + COc1ccc2c(c1)CCC1C2CCC2(C)C(NCCCCCCN3C(=O)C=CC3=O)CCC12 [U73122] (first compound 0.0001 µM, partner dose 0.4 µM)	202%
CN(c1ncccc1CNc1nc(Nc2ccc3c(c2)CC(=O)N3)ncc1C(F)(F)F)S(C)(=O)=O + COc1cc(N2CCC(N3CCN(C)CC3)CC2)ccc1Nc1ncc(Cl)c(Nc2ccccc2S(=O)(=O)C(C)C)n1 [NVP-TAE684] (first compound 0.08 µM, partner dose 0.08 µM)	44.9%
NC(=O)c1ccc(N(C(N)=O)c2c(F)cccc2F)nc1-c1ccc(F)cc1F + O=C(O)c1ccc(-c2c[nH]c3ncc(-c4ccccc4)cc23)cc1C1CCCC1 [GSK650394] (first compound 0.4 µM, partner dose 0.16 µM)	163%
C[C@@H](N)c1ccc(C(=O)Nc2ccnc3[nH]ccc23)cc1 + Cc1cc(N2CCOCC2)cc2[nH]c(-c3c(NC[C@@H](O)c4cccc(Cl)c4)cc[nH]c3=O)nc12 [BMS536924] (first compound 0.4 µM, partner dose 0.2 µM)	124%
CC(=O)O[C@@]12CO[C@@H]1C[C@H](O)[C@@]1(C)C(=O)[C@H](O)C3=C(C)[C@@H](OC(=O)[C@H](O)[C@@H](NC(=O)OC(C)(C)C)c4ccccc4)C[C@@](O)([C@@H](OC(=O)c4ccccc4)[C@H]21)C3(C)C [Docetaxel] + COc1ccc(-c2ccc3c(N4CCOCC4)nc(N4C[C@@H](C)O[C@@H](C)C4)nc3n2)cc1CO [KU0063794] (first compound 0.0001 µM, partner dose 0.02 µM)	166%
CCCCCCCCc1ccc(CCC(N)(CO)CO)cc1 [fingolimod] + Cc1cc([N+](=O)[O-])ccc1NS(=O)(=O)c1cc(Cl)ccc1Cl [FH535] (first compound 2 µM, partner dose 1 µM)	146%
CCCCCCCCc1ccc(CCC(N)(CO)CO)cc1 [fingolimod] + Cn1cc(/C=C2\C(=O)Nc3cccnc32)c2ccccc21 [GW441756] (first compound 2 µM, partner dose 0.4 µM)	77%
Cn1cnc2c(F)c(Nc3ccc(Br)cc3Cl)c(C(=O)NOCCO)cc21 [selumetinib] + O=C(Nc1ccccc1)c1cc([N+](=O)[O-])ccc1Cl [GW9662] (first compound 0.015 µM, partner dose 2 µM)	38.8%
COc1ccc(C2=N[C@@H](c3ccc(Cl)cc3)[C@@H](c3ccc(Cl)cc3)N2C(=O)N2CCNC(=O)C2)c(OC(C)C)c1 [Nutlin-3] + COc1ccc2c(c1)CCC1C2CCC2(C)C(NCCCCCCN3C(=O)C=CC3=O)CCC12 [U73122] (first compound 0.1 µM, partner dose 0.4 µM)	105%
CS(=O)(=O)c1ccc(C(=O)Nc2ccc(Cl)c(-c3ccccn3)c2)c(Cl)c1 [vismodegib] + Cc1cc(N2CCOCC2)cc2[nH]c(-c3c(NC[C@@H](O)c4cccc(Cl)c4)cc[nH]c3=O)nc12 [BMS536924] (first compound 1 µM, partner dose 0.2 µM)	49.1%
CC1(C)CCC(c2ccc(Cl)cc2)=C(CN2CCN(c3ccc(C(=O)NS(=O)(=O)c4ccc(N[C@H](CCN5CCOCC5)CSc5ccccc5)c(S(=O)(=O)C(F)(F)F)c4)cc3)CC2)C1 + Cc1cc(N2CCOCC2)cc2[nH]c(-c3c(NC[C@@H](O)c4cccc(Cl)c4)cc[nH]c3=O)nc12 [BMS536924] (first compound 0.4 µM, partner dose 0.2 µM)	152%
CC(=O)O[C@@]12CO[C@@H]1C[C@H](O)[C@@]1(C)C(=O)[C@H](O)C3=C(C)[C@@H](OC(=O)[C@H](O)[C@@H](NC(=O)OC(C)(C)C)c4ccccc4)C[C@@](O)([C@@H](OC(=O)c4ccccc4)[C@H]21)C3(C)C [Docetaxel] + Cc1ccc(NC(=O)c2cccc(N(C)C)c2)cc1NC(=O)c1ccc(O)cc1 [ZM336372] (first compound 0.0001 µM, partner dose 2 µM)	156%
C[C@@H](N)c1ccc(C(=O)Nc2ccnc3[nH]ccc23)cc1 + COc1cc(N2CCC(N3CCN(C)CC3)CC2)ccc1Nc1ncc(Cl)c(Nc2ccccc2S(=O)(=O)C(C)C)n1 [NVP-TAE684] (first compound 0.4 µM, partner dose 0.08 µM)	85.1%
CCN(CC)CCNC(=O)c1c(C)[nH]c(/C=C2\C(=O)Nc3ccc(F)cc32)c1C [sunitinib] + O=c1cc(-c2cccc3c2Sc2ccccc2S3)oc(N2CCOCC2)c1 [KU55933] (first compound 0.4 µM, partner dose 1 µM)	98.9%
C[C@]1(O)C[C@@H](c2nc(-c3ccc4ccc(-c5ccccc5)nc4c3)c3c(N)nccn32)C1 + O=C(Nc1ccccc1)c1cc([N+](=O)[O-])ccc1Cl [GW9662] (first compound 0.4 µM, partner dose 2 µM)	73.7%
CCCCCCCCc1ccc(CCC(N)(CO)CO)cc1 [fingolimod] + NCC(=O)Nc1ccc(-n2nc(C(F)(F)F)cc2-c2ccc3c(ccc4ccccc43)c2)cc1 [OSU03012] (first compound 2 µM, partner dose 1 µM)	37.6%
CC1(C)CCC(c2ccc(Cl)cc2)=C(CN2CCN(c3ccc(C(=O)NS(=O)(=O)c4ccc(N[C@H](CCN5CCOCC5)CSc5ccccc5)c(S(=O)(=O)C(F)(F)F)c4)cc3)CC2)C1 + CO[C@@H]1[C@H](N(C)C(=O)c2ccccc2)C[C@H]2O[C@]1(C)n1c3ccccc3c3c4c(c5c6ccccc6n2c5c31)C(=O)NC4 [Midostaurin] (first compound 0.4 µM, partner dose 0.08 µM)	141%
C[C@]1(O)C[C@@H](c2nc(-c3ccc4ccc(-c5ccccc5)nc4c3)c3c(N)nccn32)C1 + Cc1cc([N+](=O)[O-])ccc1NS(=O)(=O)c1cc(Cl)ccc1Cl [FH535] (first compound 0.4 µM, partner dose 1 µM)	146%

Already shown: an excerpt of the list.
Structure (SMILES)	cleaved PARP positive nuclei fraction
C[C@]1(O)C[C@@H](c2nc(-c3ccc4ccc(-c5ccccc5)nc4c3)c3c(N)nccn32)C1 + O=C(Nc1ccccc1)c1cc([N+](=O)[O-])ccc1Cl [GW9662] (first compound 0.4 µM, partner dose 2 µM)	73.7%
CCCCCCCCc1ccc(CCC(N)(CO)CO)cc1 [fingolimod] + NCC(=O)Nc1ccc(-n2nc(C(F)(F)F)cc2-c2ccc3c(ccc4ccccc43)c2)cc1 [OSU03012] (first compound 2 µM, partner dose 1 µM)	37.6%
